In paper doi:10.1101/2024.10.31.621288:
Results are given in words; binding and its absence hold for the method and conditions named. Binding seen in cells or lysates may run through a third protein. Some results given as binding are weak or reduced against the parent protein; the word gives no strength. For some assays here: Where a sequence is shown, tags or fusion partners need not be part of it.

T1: MKK4 (tagged constructs for Co-IP) (Arabidopsis) (UniProt O80397)
T1 sequence: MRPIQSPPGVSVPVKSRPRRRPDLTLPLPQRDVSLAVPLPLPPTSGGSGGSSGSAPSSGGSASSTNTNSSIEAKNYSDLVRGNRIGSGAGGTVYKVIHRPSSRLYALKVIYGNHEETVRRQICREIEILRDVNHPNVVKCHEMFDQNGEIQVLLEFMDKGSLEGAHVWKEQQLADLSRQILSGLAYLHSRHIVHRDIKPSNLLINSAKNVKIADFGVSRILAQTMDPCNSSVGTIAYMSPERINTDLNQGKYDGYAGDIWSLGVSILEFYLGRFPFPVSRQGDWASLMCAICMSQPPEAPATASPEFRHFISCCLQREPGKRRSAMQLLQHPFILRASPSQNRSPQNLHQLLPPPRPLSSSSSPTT

T2: MKK5 (tagged constructs for Co-IP) (Arabidopsis) (UniProt Q8RXG3)
T2 sequence: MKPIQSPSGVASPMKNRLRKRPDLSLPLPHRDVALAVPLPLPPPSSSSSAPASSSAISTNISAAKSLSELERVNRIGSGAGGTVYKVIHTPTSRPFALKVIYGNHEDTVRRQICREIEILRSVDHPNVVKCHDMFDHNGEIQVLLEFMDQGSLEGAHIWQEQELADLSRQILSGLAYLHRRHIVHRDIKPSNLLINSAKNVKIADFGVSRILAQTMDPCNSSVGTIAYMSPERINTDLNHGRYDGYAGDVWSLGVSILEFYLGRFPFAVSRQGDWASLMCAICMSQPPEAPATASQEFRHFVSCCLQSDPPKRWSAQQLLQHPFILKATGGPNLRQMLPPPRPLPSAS

T3: MKK4 (BiFC constructs MKK4-nYFP and MKK4-cYFP) (Arabidopsis) (UniProt O80397)
T3 sequence: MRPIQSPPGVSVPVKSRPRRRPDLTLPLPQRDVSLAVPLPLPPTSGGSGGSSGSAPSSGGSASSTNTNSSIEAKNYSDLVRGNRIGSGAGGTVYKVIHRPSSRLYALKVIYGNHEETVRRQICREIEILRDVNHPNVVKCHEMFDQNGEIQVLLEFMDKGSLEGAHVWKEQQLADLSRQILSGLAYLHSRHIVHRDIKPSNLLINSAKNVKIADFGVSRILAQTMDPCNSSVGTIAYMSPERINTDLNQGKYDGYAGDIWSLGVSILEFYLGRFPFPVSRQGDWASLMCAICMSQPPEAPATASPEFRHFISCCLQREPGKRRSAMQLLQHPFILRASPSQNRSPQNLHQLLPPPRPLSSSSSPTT

T4: MKK5 (BiFC constructs MKK5-nYFP and MKK5-cYFP) (Arabidopsis) (UniProt Q8RXG3)
T4 sequence: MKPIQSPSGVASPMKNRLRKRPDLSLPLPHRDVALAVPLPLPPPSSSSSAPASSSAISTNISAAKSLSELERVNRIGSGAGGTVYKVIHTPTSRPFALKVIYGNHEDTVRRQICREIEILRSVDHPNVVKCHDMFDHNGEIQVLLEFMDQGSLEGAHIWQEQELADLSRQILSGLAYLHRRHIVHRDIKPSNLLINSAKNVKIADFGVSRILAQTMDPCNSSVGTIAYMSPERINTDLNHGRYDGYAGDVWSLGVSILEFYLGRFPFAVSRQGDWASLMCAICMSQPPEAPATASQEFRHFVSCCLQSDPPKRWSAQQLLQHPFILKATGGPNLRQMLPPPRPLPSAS

T5: MPK6 (tagged constructs for Co-IP) (Arabidopsis), Q39026
T5 chain: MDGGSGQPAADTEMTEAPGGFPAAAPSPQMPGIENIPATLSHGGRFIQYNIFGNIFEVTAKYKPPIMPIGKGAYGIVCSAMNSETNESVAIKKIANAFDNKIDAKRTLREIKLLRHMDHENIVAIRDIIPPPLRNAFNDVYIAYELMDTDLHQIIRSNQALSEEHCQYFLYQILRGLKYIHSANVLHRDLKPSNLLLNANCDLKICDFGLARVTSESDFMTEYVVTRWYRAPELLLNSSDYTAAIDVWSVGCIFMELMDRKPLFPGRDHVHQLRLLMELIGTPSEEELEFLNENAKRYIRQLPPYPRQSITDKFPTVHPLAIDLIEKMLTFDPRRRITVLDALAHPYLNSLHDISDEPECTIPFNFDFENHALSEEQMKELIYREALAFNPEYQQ

T6: MPK6 (BiFC constructs MPK6-nYFP and MPK6-cYFP) (Arabidopsis), Q39026
T6 chain: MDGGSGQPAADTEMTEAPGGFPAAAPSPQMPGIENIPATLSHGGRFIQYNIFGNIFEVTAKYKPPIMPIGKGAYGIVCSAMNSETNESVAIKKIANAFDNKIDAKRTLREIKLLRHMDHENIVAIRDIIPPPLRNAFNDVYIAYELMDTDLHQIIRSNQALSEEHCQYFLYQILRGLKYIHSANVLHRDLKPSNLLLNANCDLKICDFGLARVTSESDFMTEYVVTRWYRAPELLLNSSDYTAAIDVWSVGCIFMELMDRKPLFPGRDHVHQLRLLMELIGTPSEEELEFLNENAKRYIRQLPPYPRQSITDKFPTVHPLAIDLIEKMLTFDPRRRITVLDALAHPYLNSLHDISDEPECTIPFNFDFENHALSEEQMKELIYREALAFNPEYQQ


Tests used:
[1] = molecular target: T1, MKK4 (tagged constructs for Co-IP) (Arabidopsis); assay: co-IP
[2] = molecular target: T2, MKK5 (tagged constructs for Co-IP) (Arabidopsis); assay: co-IP
[3] = molecular target: MPK6 (tagged constructs for Co-IP) (Arabidopsis) (UniProt Q39026); assay: co-IP
[4] = molecular target: T3, MKK4 (BiFC constructs MKK4-nYFP and MKK4-cYFP) (Arabidopsis); assay: split reporter
[5] = molecular target: T4, MKK5 (BiFC constructs MKK5-nYFP and MKK5-cYFP) (Arabidopsis); assay: split reporter
[6] = molecular target: MPK6 (BiFC constructs MPK6-nYFP and MPK6-cYFP) (Arabidopsis) (UniProt Q39026); assay: split reporter
[7] = molecular target: MPK3 (BiFC constructs MPK3-nYFP and MPK3-cYFP) (Arabidopsis) (UniProt Q39023); assay: split reporter
[8] = molecular target: MPK3 (tagged constructs for Co-IP) (Arabidopsis) (UniProt Q39023); assay: co-IP
[9] = molecular target: T5, MPK6 (tagged constructs for Co-IP) …; assay: co-IP; conditions: remark: other sources report otherwise
[10] = molecular target: T6, MPK6 (BiFC constructs MPK6-nYFP and …); assay: split reporter; conditions: remark: other sources report otherwise

Row | Molecule | binding [1] | binding [2] | binding [4] | binding [5] | further results
1 | MPK6 (tagged constructs for Co-IP) (from UniProt Q39026 1-395) | binds | binds | – | – | binding [3]: binds
2 | MPK6 (BiFC constructs MPK6-nYFP and MPK6-cYFP) (from UniProt Q39026 1-395) | – | – | binds | binds | binding [6]: binds
3 | MPK3 (BiFC constructs MPK3-nYFP and MPK3-cYFP) (protein, UniProt Q39023 1-370) MNTGGGQYTDFPAVETHGGQFISYDIFGSLFEITSKYRPPIIPIGRGAYGIVCSVLDTETNELVAMKKIANAFDNHMDAKRTLREIKLLRHLDHENIIAIRDVVPPPLRRQFSDVYISTELMDTDLHQIIRSNQSLSEEHCQYFLYQLLRGLKYIHSANIIHRDLKPSNLLLNANCDLKICDFGLARPTSENDFMTEYVVTRWYRAPELLLNSSDYTAAIDVWSVGCIFMELMNRKPLFPGKDHVHQMRLLTELLGTPTESDLGFTHNEDAKRYIRQLPNFPRQPLAKLFSHVNPMAIDLVDRMLTFDPNRRITVEQALNHQYLAKLHDPNDEPICQKPFSFEFEQQPLDEEQIKEMIYQEAIALNPTYG | – | – | binds | binds | binding [7]: binds
4 | MKK4 (tagged constructs for Co-IP) (protein, UniProt O80397 1-366) MRPIQSPPGVSVPVKSRPRRRPDLTLPLPQRDVSLAVPLPLPPTSGGSGGSSGSAPSSGGSASSTNTNSSIEAKNYSDLVRGNRIGSGAGGTVYKVIHRPSSRLYALKVIYGNHEETVRRQICREIEILRDVNHPNVVKCHEMFDQNGEIQVLLEFMDKGSLEGAHVWKEQQLADLSRQILSGLAYLHSRHIVHRDIKPSNLLINSAKNVKIADFGVSRILAQTMDPCNSSVGTIAYMSPERINTDLNQGKYDGYAGDIWSLGVSILEFYLGRFPFPVSRQGDWASLMCAICMSQPPEAPATASPEFRHFISCCLQREPGKRRSAMQLLQHPFILRASPSQNRSPQNLHQLLPPPRPLSSSSSPTT | binds | binds | – | – | –
5 | MKK5 (tagged constructs for Co-IP) (protein, UniProt Q8RXG3 1-348) MKPIQSPSGVASPMKNRLRKRPDLSLPLPHRDVALAVPLPLPPPSSSSSAPASSSAISTNISAAKSLSELERVNRIGSGAGGTVYKVIHTPTSRPFALKVIYGNHEDTVRRQICREIEILRSVDHPNVVKCHDMFDHNGEIQVLLEFMDQGSLEGAHIWQEQELADLSRQILSGLAYLHRRHIVHRDIKPSNLLINSAKNVKIADFGVSRILAQTMDPCNSSVGTIAYMSPERINTDLNHGRYDGYAGDVWSLGVSILEFYLGRFPFAVSRQGDWASLMCAICMSQPPEAPATASQEFRHFVSCCLQSDPPKRWSAQQLLQHPFILKATGGPNLRQMLPPPRPLPSAS | – | binds | – | – | –
6 | MPK3 (tagged constructs for Co-IP) (protein, UniProt Q39023 1-370) MNTGGGQYTDFPAVETHGGQFISYDIFGSLFEITSKYRPPIIPIGRGAYGIVCSVLDTETNELVAMKKIANAFDNHMDAKRTLREIKLLRHLDHENIIAIRDVVPPPLRRQFSDVYISTELMDTDLHQIIRSNQSLSEEHCQYFLYQLLRGLKYIHSANIIHRDLKPSNLLLNANCDLKICDFGLARPTSENDFMTEYVVTRWYRAPELLLNSSDYTAAIDVWSVGCIFMELMNRKPLFPGKDHVHQMRLLTELLGTPTESDLGFTHNEDAKRYIRQLPNFPRQPLAKLFSHVNPMAIDLVDRMLTFDPNRRITVEQALNHQYLAKLHDPNDEPICQKPFSFEFEQQPLDEEQIKEMIYQEAIALNPTYG | binds | binds | – | – | binding [8]: binds
7 | MPK3 (tagged constructs for Co-IP), Q39023 1-370 (protein) MNTGGGQYTDFPAVETHGGQFISYDIFGSLFEITSKYRPPIIPIGRGAYGIVCSVLDTETNELVAMKKIANAFDNHMDAKRTLREIKLLRHLDHENIIAIRDVVPPPLRRQFSDVYISTELMDTDLHQIIRSNQSLSEEHCQYFLYQLLRGLKYIHSANIIHRDLKPSNLLLNANCDLKICDFGLARPTSENDFMTEYVVTRWYRAPELLLNSSDYTAAIDVWSVGCIFMELMNRKPLFPGKDHVHQMRLLTELLGTPTESDLGFTHNEDAKRYIRQLPNFPRQPLAKLFSHVNPMAIDLVDRMLTFDPNRRITVEQALNHQYLAKLHDPNDEPICQKPFSFEFEQQPLDEEQIKEMIYQEAIALNPTYG | – | – | – | – | binding [9]: binds
8 | MPK3 (BiFC constructs MPK3-nYFP and MPK3-cYFP), Q39023 1-370 (protein) MNTGGGQYTDFPAVETHGGQFISYDIFGSLFEITSKYRPPIIPIGRGAYGIVCSVLDTETNELVAMKKIANAFDNHMDAKRTLREIKLLRHLDHENIIAIRDVVPPPLRRQFSDVYISTELMDTDLHQIIRSNQSLSEEHCQYFLYQLLRGLKYIHSANIIHRDLKPSNLLLNANCDLKICDFGLARPTSENDFMTEYVVTRWYRAPELLLNSSDYTAAIDVWSVGCIFMELMNRKPLFPGKDHVHQMRLLTELLGTPTESDLGFTHNEDAKRYIRQLPNFPRQPLAKLFSHVNPMAIDLVDRMLTFDPNRRITVEQALNHQYLAKLHDPNDEPICQKPFSFEFEQQPLDEEQIKEMIYQEAIALNPTYG | – | – | – | – | binding [10]: binds
9 | MKK4 (BiFC constructs MKK4-nYFP and MKK4-cYFP) (protein, UniProt O80397 1-366) MRPIQSPPGVSVPVKSRPRRRPDLTLPLPQRDVSLAVPLPLPPTSGGSGGSSGSAPSSGGSASSTNTNSSIEAKNYSDLVRGNRIGSGAGGTVYKVIHRPSSRLYALKVIYGNHEETVRRQICREIEILRDVNHPNVVKCHEMFDQNGEIQVLLEFMDKGSLEGAHVWKEQQLADLSRQILSGLAYLHSRHIVHRDIKPSNLLINSAKNVKIADFGVSRILAQTMDPCNSSVGTIAYMSPERINTDLNQGKYDGYAGDIWSLGVSILEFYLGRFPFPVSRQGDWASLMCAICMSQPPEAPATASPEFRHFISCCLQREPGKRRSAMQLLQHPFILRASPSQNRSPQNLHQLLPPPRPLSSSSSPTT | – | – | binds | binds | –
10 | MKK5 (BiFC constructs MKK5-nYFP and MKK5-cYFP) (protein, UniProt Q8RXG3 1-348) MKPIQSPSGVASPMKNRLRKRPDLSLPLPHRDVALAVPLPLPPPSSSSSAPASSSAISTNISAAKSLSELERVNRIGSGAGGTVYKVIHTPTSRPFALKVIYGNHEDTVRRQICREIEILRSVDHPNVVKCHDMFDHNGEIQVLLEFMDQGSLEGAHIWQEQELADLSRQILSGLAYLHRRHIVHRDIKPSNLLINSAKNVKIADFGVSRILAQTMDPCNSSVGTIAYMSPERINTDLNHGRYDGYAGDVWSLGVSILEFYLGRFPFAVSRQGDWASLMCAICMSQPPEAPATASQEFRHFVSCCLQSDPPKRWSAQQLLQHPFILKATGGPNLRQMLPPPRPLPSAS | – | – | – | binds | –
